# This list was built around the results that the source calls inconclusive (neither active nor inactive); the mix of calls is not that of the screen. Potencies of inconclusive entries are doubtful fits and often do not repeat. Active and inactive are the calls of the source. The call rests on the fitted dose curve; in most records, active means well fitted inhibition curve with a large enough effect; inconclusive means small, poorly fitted or top-dose-only effect; inactive means no such curve, though single readings can be large or run the other way.
# Assay: qHTS Assay for Inhibitors of Bacillus subtilis Sfp phosphopantetheinyl transferase (PPTase): Hepg2 Assay
# Details: HepG2 cytotoxicity counter-screen; series mostly up to 46.1 µM; activity change, negative = inhibition: at the top concentration
# Source text: The covalent attachment of a phosphopantetheinyl (4'-PP) arm to a variety of synthases and other proteins is a key posttranslational protein modification. The 4'-PP is installed on the proteins post-translationally from coenzyme A (CoA) on a conserved serine residue by action of phosphopantetheinyl transferase (PPTase) enzymes. Phosphopantetheinylation is essential for synthase activity, and removal of the PPTase gene precludes natural product synthesis in microorganisms, or in the case of fatty acid biosynthesis, renders the organism unviable. PPTase enzymes belong to a distinct structural superfamily. Within bacteria, these enzymes are grouped into two classes based upon primary structure, the AcpS-Type and Sfp-Type PPTases.
# Sfp-type PPTases, corresponding to an activator of surfactin production in Bacillus subtilis, are responsible for modifying type I polyketide and nonribosomal peptide synthases of prokaryotes. Sfp-type PPTases are responsible for the activation of a variety of pathogen-associated virulence factors. Among these compounds are toxins such as mycolactone from Mycobacterium ulcerans, siderophores such as vibriobactin from Vibrio cholerae or mycobactin from Mycobacterium tuberculosis, as well as the mycolic acids which form the waxy cell wall of Mycobacteria. The biosyntheses of these natural products are considered attractive targets for drug design.
# In search of small molecule Sfp-PPTase inhibitors, a fluorescence quenching assay was developed for detection of Bacillus subtilis Sfp-PPTase enzymatic activity in a miniaturized high-throughput format. The consensus ybbr acceptor peptide […] was N-terminally labeled with Black Hole Quencher-2 (BHQ-2) and used in combination with rhodamine-labeled coenzyme A as a co-substrate.
# Phosphopantetheinyl transfer is a process essential to cellular viability and maintenance in all forms of life. Cell-permeable and stable compounds acting as PPTase inhibitors are anticipated to be growth inhibitory agents. This assay sought to assess the toxicity of test compounds in the HepG2 hepatocarcinoma cells; a human cell line whose use additionally determines the toxicity of test article metabolites.
# NIH Chemical Genomics Center [NCGC]
# NIH Molecular Libraries Probe Centers Network [MLPCN]
# Assay Submitter (PI): Michale Burkart, University of California, San Diego
# Test compounds' toxicity was assessed by measuring cellular ATP content using a luciferase-coupled ATP quantitation assay (CellTiter-Glo; Promega, Madison, WI). In this assay, luminescent signal is proportional to amount of ATP, and thus to the number of metabolically competent cells. Briefly, Hepg2 cell suspension (5 uL, 4 x 10^5 cells/mL) was dispensed into 1,536-well tissue-culture treated white/solid bottom assay plates (Greiner Bio-One North America, Monroe, NC) using a Flying Reagent Dispenser (Aurora Discovery, Carlsbad, CA). Cells were incubated at 37 deg C for 6 hr to allow for cell attachment, followed by addition of compounds via pin tool (Kalypsys, San Diego, CA). After compound addition, plates were incubated for 48 hr at 37 deg C. At the end of the incubation period, CellTiter-Glo reagent (5 uL) was added, plates were incubated at room temperature in the dark for 30 min, and the luminescence intensity of each well was determined using a ViewLux plate reader (PerkinElmer, Shelton, CT). The positive control was 92 uM and 41 uM of tetra-N-Octylammonium bromide, and the negative control was DMSO.
SMILES,Potency,"activity change, negative = inhibition"
FC(F)(F)c1cccc(N2CCN(C(=S)Nc3ccncc3)CC2)c1,"inconclusive: 19.9 µM [inhibitor, partial curve]",–
Cc1ccnc(NC(=S)N2CCC(Nc3cccc(C(F)(F)F)c3)CC2)c1,"inconclusive: 3.15 µM [inhibitor, partial curve, poor fit]",–
COc1ccnc(NC(=S)N2CCN(c3ccc(Cl)cc3Cl)CC2)c1,–,inactive: -6.72%
Cc1cc(C)nc(Nc2nnc(N3CCN(c4cccc(C(F)(F)F)c4)CC3)s2)c1,–,inactive: -11.6%
Cc1ccnc(NC(=S)N[C@H]2CCN(c3cccc(C(F)(F)F)c3)C2)c1,"inconclusive: 2.81 µM [inhibitor, partial curve, poor fit]",–
CN(C)c1ccc2nc(NC(=S)N3CCN(c4cccc(C(F)(F)F)c4)CC3)sc2c1,active: 8.88 µM,–
Cc1ccnc(NC(=S)N2CCc3ccccc3C2)c1,"inconclusive: 15.8 µM [inhibitor, partial curve, poor fit]",–
COc1ccnc(NC(=S)N2CCN(c3ncc(C(F)(F)F)cc3Cl)CC2)c1,–,inactive: 1.74%
FC(F)(F)c1cccc(N2CCN(C(=S)Nc3cnccn3)CC2)c1,–,inactive: -0.551%
COc1ccc(NC(=S)N2CCN(c3cccc(C(F)(F)F)c3)CC2)nc1,"inconclusive: 19.9 µM [inhibitor, partial curve]",–
Cc1ccnc(NC(=S)N2CCN(c3cc(C(F)(F)F)cc(C(F)(F)F)c3)CC2)c1,active: 7.91 µM,–
Cc1ccnc(NC(=S)N2CCN(c3ccc(Cl)c(Cl)c3)CC2)c1,active: 28.1 µM,–

# Source: PubChem BioAssay AID602373 (National Center for Advancing Translational Sciences (NCATS), 2012)
